Taken from: PubChem BioAssay AID686938 (Drosophila RNAi Screening Center, 2013)
Screen: 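Looking for CRAC channel components and the factors controlling them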 (primary screen). Cells: Drosophila S2R+ cells. Reagent: long dsRNA against Drosophila genes, about 0.25 µg dsRNA per well, roughly 10,000 cells. Time to read-out: 5 days of knock-down before the calcium assay. Challenge: thapsigargin (SERCA pump blocker) to empty calcium stores; entry signal taken 4 min after adding it. Detection: 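Duplicate raw fluo-4 intensities per well from a plate reader, at rest and four minutes after thapsigargin emptied calcium stores; entry-to-rest ratio filled for only some wells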. Direction: calcium entry signal: higher = stronger calcium signal after store depletion; entry to resting ratio: higher = more calcium entry relative to resting level; resting calcium signal: higher = higher resting calcium signal. Hit rule: 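Hit if the duplicate-averaged plate z-score for entry over resting signal is under −3; wells with weak total dye signal (Fmax z < −2) or more than 5 off-targets removed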. Meaning of the calls: active = strongly reduced calcium entry; inactive = no strong reduction.
The screen tested about 23,000 reagents; shown is a random part of those that have a named target and a result. Over the whole deposit, 75 (0.33%) are marked active. 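Raw plate signals without normalisation; calls rest on plate z-scores that were not deposited; ratio present for only 364 wells.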 Unmarked entries are inactive. Reagents against one gene are numbered here. Names joined by + are all predicted targets of the reagent. Not stated in the record: the dose of the treatment.

| target | reagent | calcium entry signal, replicate 1 (fluorescence units) | calcium entry signal, replicate 2 (fluorescence units) | entry to resting ratio | resting calcium signal, replicate 1 (fluorescence units) | resting calcium signal, replicate 2 (fluorescence units) |
| --- | --- | --- | --- | --- | --- | --- |
| RpL18 (Ribosomal protein L18) | 1 | 9.13e6 | 1.85e7 | – | 7.35e6 | 1.16e7 |
| RpL18 (Ribosomal protein L18) | 2 | 1.29e7 | 1.95e7 | – | 9.58e6 | 1.34e7 |
| mRpS7 (mitochondrial ribosomal protein S7) | 1 | 6.26e7 | – | – | 2.81e7 | – |
| DJ-1alpha | 1 | 3.49e7 | 3.37e7 | – | 1.90e7 | 1.56e7 |
| CG11585 | 1 | 2.70e7 | 3.52e7 | – | 1.43e7 | 1.75e7 |
| CG15870 | 1 | 2.45e7 | 2.72e7 | – | 1.26e7 | 1.29e7 |
| Cyp6d4 (Cytochrome P450 6d4) | 1 | 5.61e7 | 4.92e7 | – | 2.46e7 | 2.09e7 |
| CG31109 | 1 | 4.64e7 | 6.05e7 | – | 2.19e7 | 2.29e7 |
| CG32750 | 1 | 3.50e7 | 3.68e7 | – | 1.71e7 | 1.91e7 |
| CG33296 | 1 | 3.32e7 | 4.20e7 | – | 1.78e7 | 1.72e7 |
| CG17732 | 1 | 3.55e7 | 5.01e7 | – | 1.64e7 | 2.27e7 |
| AstC (Allatostatin C) | 1 | 3.58e7 | 5.86e7 | – | 1.77e7 | 2.48e7 |
| Gart (GART trifunctional enzyme) | 1 | 3.32e7 | 4.05e7 | – | 1.64e7 | 1.92e7 |
| Acsx3 (Acyl-CoA synthetase X3) | 1 | 3.15e7 | 2.51e7 | – | 1.55e7 | 1.22e7 |
| Ube4A (Ubiquitination factor E4A) | 1 | 4.40e7 | – | – | 2.60e7 | – |
| fzr2 (fizzy-related 2) | 1 | 3.38e7 | – | – | 1.80e7 | – |
| CG31928 | 1 | 4.54e7 | – | – | 2.48e7 | – |
| Nbr (Nibbler) | 1 | 3.21e7 | – | – | 1.63e7 | – |
| CG9416 | 1 | 3.72e7 | 3.75e7 | – | 1.60e7 | 1.71e7 |
| CG16779 | 1 | 4.05e7 | 3.40e7 | – | 2.43e7 | 1.92e7 |
| CG8543 | 1 | 3.71e7 | 4.76e7 | – | 1.79e7 | 2.12e7 |
| CG8543 | 2 | 3.34e7 | 4.23e7 | – | 1.64e7 | 2.09e7 |

8 entries from above, showing only “resting calcium signal, replicate 2 (fluorescence units)”:
CG15870: 1.29e7
Cyp6d4 (Cytochrome P450 6d4): 2.09e7
CG31109: 2.29e7
CG32750: 1.91e7
CG33296: 1.72e7
CG17732: 2.27e7
AstC (Allatostatin C): 2.48e7
Gart (GART trifunctional enzyme): 1.92e7

Next reagents:
| target | reagent | calcium entry signal, replicate 1 (fluorescence units) | calcium entry signal, replicate 2 (fluorescence units) | entry to resting ratio | resting calcium signal, replicate 1 (fluorescence units) | resting calcium signal, replicate 2 (fluorescence units) |
| --- | --- | --- | --- | --- | --- | --- |
| CG4836 | 1 | 3.85e7 | 2.79e7 | – | 1.76e7 | 1.41e7 |
| CG4836 | 2 | 3.51e7 | 4.84e7 | – | 1.82e7 | 2.64e7 |
| Hsp23 (Heat shock protein 23) | 1 | 5.41e7 | 3.84e7 | – | 3.49e7 | 1.57e7 |
| CG10086 | 1 | 3.89e7 | 3.73e7 | – | 1.99e7 | 1.68e7 |
| sei (seizure) | 1 | 4.30e7 | – | – | 2.15e7 | – |
| CG13380 + CG4174 | 1 | 4.43e7 | 5.11e7 | – | 2.02e7 | 3.38e7 |
| CG13380 + CG4174 | 2 | 4.36e7 | 6.96e7 | – | 2.02e7 | 2.82e7 |
| Pvf3 (PDGF- and VEGF-related factor 3) | 1 | 3.47e7 | 3.56e7 | – | 1.72e7 | 1.75e7 |
| Pvf3 (PDGF- and VEGF-related factor 3) | 2 | 3.80e7 | 3.45e7 | – | 1.94e7 | 1.74e7 |
| Pvf3 (PDGF- and VEGF-related factor 3) | 3 | 3.99e7 | 4.05e7 | – | 1.88e7 | 1.87e7 |
| Pvf3 (PDGF- and VEGF-related factor 3) | 4 | 4.13e7 | 3.53e7 | – | 2.00e7 | 1.65e7 |
| Apc2 (Adenomatous polyposis coli 2) | 1 | 2.99e7 | 3.17e7 | – | 1.43e7 | 1.30e7 |
| CG13896 | 1 | 4.38e7 | 3.76e7 | – | 2.19e7 | 1.77e7 |
| Drsl2 (Drosomycin-like 2) | 1 | 3.22e7 | 3.27e7 | – | 1.69e7 | 1.52e7 |
| CG3323 | 1 | 3.07e7 | 2.94e7 | – | 1.51e7 | 1.51e7 |
| grk (gurken) | 1 | 4.33e7 | – | – | 2.56e7 | – |
| Syx17 (Syntaxin 17) | 1 | 4.37e7 | 3.56e7 | – | 2.88e7 | 1.54e7 |
| CG15712 | 1 | 5.30e7 | 4.54e7 | – | 2.32e7 | 2.19e7 |
| CG11378 | 1 | 3.84e7 | 5.11e7 | 2 | 1.93e7 | 2.10e7 |
| lbl (ladybird late) | 1 | 4.35e7 | 4.02e7 | – | 5.55e7 | 1.82e7 |
| hth (homothorax) | 1 | 2.96e7 | 3.14e7 | – | 1.37e7 | 1.63e7 |
| CG33462 | 1 | 4.81e7 | 3.78e7 | – | 2.45e7 | 1.78e7 |
| CG15144 | 1 | 5.21e7 | 3.27e7 | – | 2.10e7 | 1.58e7 |
| btsz (bitesize) | 1 | 3.31e7 | 4.65e7 | – | 1.67e7 | 6.46e7 |
| btsz (bitesize) | 2 | 3.44e7 | 4.66e7 | – | 1.61e7 | 5.72e7 |
| btsz (bitesize) | 3 | 3.20e7 | 4.36e7 | – | 1.60e7 | 7.28e7 |
| btsz (bitesize) | 4 | 3.25e7 | 4.76e7 | – | 1.62e7 | 7.93e7 |
| btsz (bitesize) | 5 | 2.97e7 | 3.16e7 | – | 1.79e7 | 1.50e7 |
| CG14220 | 1 | 3.59e7 | 2.51e7 | – | 1.92e7 | 1.28e7 |
| CG2111 | 1 | 3.11e7 | 3.43e7 | – | 1.53e7 | 1.71e7 |
| CG33128 | 1 | 3.88e7 | 1.60e7 | – | 1.72e7 | 9.30e6 |
| CG13319 | 1 | 5.06e7 | 3.52e7 | – | 2.67e7 | 1.80e7 |
| CG13077 | 1 | 4.16e7 | 4.99e7 | – | 2.09e7 | 2.24e7 |
| RabX1 | 1 | 3.74e7 | 4.31e7 | – | 2.00e7 | 2.23e7 |
| lncRNA:CR41443 (long non-coding RNA:CR41443) | 1 | 3.85e7 | 3.80e7 | – | 1.72e7 | 1.83e7 |
| CG46491 | 1 | 2.24e7 | 2.22e7 | – | 1.00e7 | 1.09e7 |
| CG46491 | 2 | 4.87e7 | 4.48e7 | – | 2.00e7 | 2.17e7 |
